# From PubChem BioAssay AID264 (DTP/NCI, 2004)
# The list is a part of this screen's results and no random one: it gathers tests that were run many times, whatever their T/C, doses with no T/C, and many T/C values between a quarter and a half above the control. Other doses and runs of a compound stand elsewhere. T/C gives the treated animals as a percentage of the vehicle group. Schedule codes are those of the source, taken here to give the interval after Q, in days (D) or hours (H), and the number of doses after X. Some values lie below zero, which means that the treated tumours became smaller. Some doses were run more than once; the values are given in rising order. Some T/C values carry the count of animals alive at the toxicity check (mostly the fifth day); where none is given, no animal had died by that day. Some doses have a count of surviving animals in place of a T/C: the source files T/C as zero there, which appears to mark a toxic dose or a test without result, not a measured value. Counts of survivors are from the toxicity check (mostly the fifth day) where no day follows; animals may have died later.
# Tested on: nude mice, LX-1 lung xenograft intrarenal, tumor weight T/C
# Experiment: NCI In Vivo Anticancer Drug Screen. Data for tumor model Human Lung LX-1 Xenograft (intrarenal inoculation) in NU/NU Swiss (nude) mice
# Conditions: T/C endpoint: mean tumor weight change, higher T/C = larger tumour; for T/C: evaluated on day 11
# In short: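 Antitumor effect is expressed as a ratio: the mean tumor measurement of the drug-treated group relative to that of the vehicle-dosed control group.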
# [1] = dose: 4.0 mg/kg/injection, schedule: Q01DX010 (sc), vehicle: saline
# [2] = dose: 8.0 mg/kg/injection, schedule: Q01DX010 (sc), vehicle: saline
# [3] = dose: 16.0 mg/kg/injection, schedule: Q01DX010 (sc), vehicle: saline
# [4] = dose: 6.0 mg/kg/injection, schedule: Q04DX003 (sc), vehicle: saline
compound,measurement,setting,value
C1CN(P2(N3CC3)=NP(N3CC3)(N3CC3)=NP(N3CC3)(N3CC3)=N2)CCO1 (stereo not given),T/C,"dose: 12.5 mg/kg/injection, schedule: Q04DX003 (sc), vehicle: saline",142 % of control
same,survivor count,"dose: 50.0 mg/kg/injection, schedule: Q01DX010 (sc), vehicle: saline",0 of 6 on day 11
same,survivor count,"dose: 100.0 mg/kg/injection, schedule: Q01DX010 (sc), vehicle: saline",0 of 6 on day 11
same,survivor count,"dose: 100.0 mg/kg/injection, schedule: Q04DX003 (sc), vehicle: saline",2 of 6 on day 11
same,survivor count,"dose: 200.0 mg/kg/injection, schedule: Q04DX003 (sc), vehicle: saline",0 of 6 on day 11
CN(C)/N=N/c1nc[nH]c1C(N)=O,T/C,"dose: 100.0 mg/kg/injection, schedule: Q04DX003 (sc), vehicle: Klucel (hydroxypropylcellulose) (HPC)","1, 21, 36, 66 % of control"
same,T/C,"dose: 200.0 mg/kg/injection, schedule: Q04DX003 (sc), vehicle: Klucel (hydroxypropylcellulose) (HPC)","-47 [2 of 2 alive on day 11], 6, 12, 34 % of control"
same,survivor count,"dose: 400.0 mg/kg/injection, schedule: Q01DX010 (sc), vehicle: Klucel (hydroxypropylcellulose) (HPC)",1 of 3 on day 11
same,T/C,"dose: 400.0 mg/kg/injection, schedule: Q04DX003 (sc), vehicle: Klucel (hydroxypropylcellulose) (HPC)","-14, 12, 19 % of control"
same,T/C,"dose: 800.0 mg/kg/injection, schedule: Q04DX003 (sc), vehicle: Klucel (hydroxypropylcellulose) (HPC)","-40, -4 [2 of 3 alive on day 11], 20 [2 of 3 alive on day 11], 80 % of control"
N[C@H](C(=O)O)[C@@H]1CC(Cl)=NO1,T/C,[1],"3, 39, 74 [2 of 3 alive on day 11], 159 % of control"
same,T/C,[2],"33, 68, 114 % of control"
same,survivor count,[2],1 of 3 on day 11
same,T/C,[3],37 [2 of 3 alive on day 11] and 45 % of control [2 of 3 alive on day 11]
same,survivor count,[3],1 of 3 on day 11
same,survivor count,"dose: 32.0 mg/kg/injection, schedule: Q01DX010 (sc), vehicle: saline",0 of 3 on day 11 and 1 of 3 on day 11
same,survivor count,"dose: 64.0 mg/kg/injection, schedule: Q01DX010 (sc), vehicle: saline",0 of 3 on day 11
same,survivor count,"dose: 128.0 mg/kg/injection, schedule: Q01DX010 (sc), vehicle: saline",0 of 3 on day 11
BrCC[Se]c1ccccc1,T/C,"dose: 400.0 mg/kg/injection, schedule: Q01DX010 (sc), vehicle: saline with Tween-80",135 % of control [2 of 3 alive on day 11]
CO[C@H](C(=O)[C@@H](O)[C@@H](C)O)[C@@H]1Cc2cc3cc(OC4CC(OC5CC(O)C(O)C(C)O5)C(O)C(C)O4)c(C)c(O)c3c(O)c2C(=O)[C@H]1OC1CC(OC2CC(OC3CC(C)(O)C(O)C(C)O3)C(O)C(C)O2)C(O)C(C)O1 (stereo not given in full),survivor count,"dose: 2.0 mg/kg/injection, schedule: Q01DX010 (sc), vehicle: saline",0 of 3 on day 11
same,survivor count,[1],0 of 3 on day 11
same,survivor count,[4],1 of 6 on day 11
CCN(Cc1ccc(Cl)c(Cl)c1)c1ccc2nc(N)nc(N)c2c1C,survivor count,"dose: 75.0 mg/kg/injection, schedule: Q04DX003 (sc), vehicle: water",2 of 6 on day 11
same,survivor count,"dose: 150.0 mg/kg/injection, schedule: Q04DX003 (sc), vehicle: water",0 of 6 on day 11
same,survivor count,"dose: 300.0 mg/kg/injection, schedule: Q04DX003 (sc), vehicle: water",0 of 6 on day 11
CSCS(=O)C[C@H](CO)NC(=O)/C=C/c1c(C)[nH]c(=O)[nH]c1=O (stereo not given in full),survivor count,[4],0 of 6 on day 11
CNC=O,survivor count,"dose: 800.0 mg/kg/injection, schedule: Q01DX010 (sc), vehicle: saline",3 of 6 on day 11
same,survivor count,"dose: 1600.0 mg/kg/injection, schedule: Q01DX010 (sc), vehicle: saline",0 of 6 on day 11
Nc1cccc(=O)[nH]1,survivor count,"dose: 2400.0 mg/kg/injection, schedule: Q04DX003 (sc), vehicle: saline",1 of 6 on day 11
CC(=S)NC(O)C(=O)c1ccccc1 (stereo not given),T/C,"dose: 300.0 mg/kg/injection, schedule: Q04DX003 (sc), vehicle: saline with Tween-80",126 % of control
